In paper PMC12003902:
These are yes or no findings as the source states them, for the method shown. In cells and extracts the contact can be indirect. These calls come from enrichment with a bait or labelling near it, and not all partners need be listed. No binding means not detected with the bait.

Molecular target: dense granule protein 12 (GRA12), endogenously C-terminally HA-tagged (RH GRA12-HA) (Toxoplasma gondii)
Test: affinity purification with mass spectrometry; anti-HA agarose beads, overnight 4 °C; lysates of PWD/PhJ BMDMs treated 24 h with 10 U/ml mIFNγ and infected 24 h with RH GRA12-HA or RH ΔKU80 (control), triplicate; IP buffer 10 mM Tris, 150 mM NaCl, 0.5 mM EDTA, 0.4% NP40, pH 7.5

B1: GRA2 (protein, UniProt P13404 24-185)
chain: AEFSGVVNQGPVDVPFSGKPLDERAVGGKGEHTPPLPDERQQEPEEPVSQRASRVAEQLFRKFLKFAENVGHHSEKAFKKAKVVAEKGFTAAKTHTVRGFKVAKEAAGRGMVTVGKKLANVESDRSTTTTQAPDSPNGLAETEVPVEPQQRAAHVPVPDFSQ
In the case of B1, the binding is reported as “no binding”.
